Measurements taken from the supplement of paper PMC9233669.
Variants at the floor of the assay are shown more often than the library holds them.

Assays:
[1] = test system: biotinyl-Leu-oxazolone; experiment: self-aminoacylation, catalytic enhancement (BLO) (fold over background); higher = more active; k-Seq, kA / k0A0; sequences stand for … in GGGAAUGGAUCCACAUCUACGAAUUC…UUCACUGCAGACUUGACGAAGCUG
Procedure, shortened: (§1)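 Working in 50 μL HEPES/NaCl/KCl/MgCl2/CaCl2 buffer with 5% acetonitrile at pH 6.9–7.0, mutagenized RNA pools (0.43 μM; 21-nt variable region) were reacted with 2–1250 μM of each biotinyl-aminoacyl-oxazolone for 90 minutes at room temperature. Streptavidin capture followed, with quantification by triplicate qPCR and Illumina sequencing. Catalytic enhancement is reported as median kA over the uncatalyzed rate, the low-activity peak of a bimodal Gaussian fit to the data.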

[2] = test system: biotinyl-Val-oxazolone; experiment: self-aminoacylation, catalytic enhancement (BVO) (fold over background); higher = more active; k-Seq, kA / k0A0; sequences stand for … in GGGAAUGGAUCCACAUCUACGAAUUC…UUCACUGCAGACUUGACGAAGCUG
Procedure, shortened: as §1

[3] = test system: biotinyl-Trp-oxazolone; experiment: self-aminoacylation, catalytic enhancement (BWO) (fold over background); higher = more active; k-Seq, kA / k0A0; sequences stand for … in GGGAAUGGAUCCACAUCUACGAAUUC…UUCACUGCAGACUUGACGAAGCUG
Procedure, shortened: as §1

[4] = test system: biotinyl-Ile-oxazolone; experiment: self-aminoacylation, catalytic enhancement (BIO) (fold over background); higher = more active; k-Seq, kA / k0A0; sequences stand for … in GGGAAUGGAUCCACAUCUACGAAUUC…UUCACUGCAGACUUGACGAAGCUG
Procedure, shortened: as §1

[5] = test system: biotinyl-Phe-oxazolone; experiment: self-aminoacylation, catalytic enhancement (BFO) (fold over background); higher = more active; k-Seq, kA / k0A0; sequences stand for … in GGGAAUGGAUCCACAUCUACGAAUUC…UUCACUGCAGACUUGACGAAGCUG
Procedure, shortened: as §1

[6] = test system: biotinyl-Met-oxazolone; experiment: self-aminoacylation, catalytic enhancement (BMO) (fold over background); higher = more active; k-Seq, kA / k0A0; sequences stand for … in GGGAAUGGAUCCACAUCUACGAAUUC…UUCACUGCAGACUUGACGAAGCUG
Procedure, shortened: as §1

Row | Sequence | self-aminoacylation [1] | self-aminoacylation [2] | self-aminoacylation [3] | self-aminoacylation [4] | self-aminoacylation [5] | self-aminoacylation [6]
1 | AUUACCCUGGUCGUCGAGUGA [Fam2.1 aminoacylation ribozyme variant] | 1.17 | 1.13 | 1.28 | 1.06 | 1.68 | 1.21
2 | AUUACCCUGGUCGUCUAGUGA [Fam2.1 aminoacylation ribozyme variant] | 1.53 | 1.04 | 0.905 | 1.15 | 2.09 | 1.37
3 | AUUACCCUGGUUAUCGAGUGG [Fam2.1 aminoacylation ribozyme variant] | 1.94 | 1.44 | 1.49 | 1.03 | 1.61 | 1.57
4 | AUUACCCUGGUUAUCGAUUGA [Fam2.1 aminoacylation ribozyme variant] | 0.672 | 0.677 | 1.03 | 0.645 | 0.733 | 0.633
5 | AUUACCCUGUUCAUCGACUGA [Fam2.1 aminoacylation ribozyme variant] | 1.11 | 1.26 | 0.87 | 1.17 | 0.787 | 1.3
6 | AUUACCCUGUUCAUCGAGAGA [Fam2.1 aminoacylation ribozyme variant] | 0.99 | 1.23 | 0.607 | 1.28 | 1.07 | 1.08
7 | AUUACCCUGUUCAUCGAGUGA [Fam2.1 aminoacylation ribozyme variant] | 5.44 | 3.22 | 7.34 | 2.97 | 16.6 | 5.57
8 | AUUACCCUUAUCAUCGAGUGA [Fam2.1 aminoacylation ribozyme variant] | 13.2 | 6.51 | 16.7 | 5.68 | 60.8 | 14.1
9 | AUUACCCUUGUCAUCGAGAGA [Fam2.1 aminoacylation ribozyme variant] | 0.92 | 0.778 | 0.397 | 0.893 | 0.771 | 1.03
10 | AUUACCGUGGUCAUCGAGGGA [Fam2.1 aminoacylation ribozyme variant] | 1.73 | 1.59 | 1.65 | 1.13 | 0.86 | 1.54
11 | AUUACCUUGGUCAUAGAGUGA [Fam2.1 aminoacylation ribozyme variant] | 7.24 | 3.69 | 9.04 | 3.58 | 25.4 | 6.82
12 | AUUACCUUGGUCAUCGAGUGC [Fam2.1 aminoacylation ribozyme variant] | 1.14 | 0.99 | 0.512 | 0.989 | 1.08 | 1.33
13 | AUUACGCUGGUCAUCCAGUGA [Fam2.1 aminoacylation ribozyme variant] | 3.99 | 1.96 | 4.31 | 2.27 | 12.8 | 3.63
14 | AUUACGCUGGUCAUCGAAUGA [Fam2.1 aminoacylation ribozyme variant] | 1.81 | 1.89 | 1.65 | 1.96 | 1.24 | 1.92
15 | AUUACUCUGGUCAUCGAGUUA [Fam2.1 aminoacylation ribozyme variant] | 1.34 | 1.13 | 0.631 | 1.25 | 1.02 | 1.07
16 | AUUACUCUGGUCAUCUAGUGA [Fam2.1 aminoacylation ribozyme variant] | 9.74 | 4.34 | 11.4 | 4.55 | 42.8 | 9.64
17 | AUUAGCCUGGACAUCGAGUGA [Fam2.1 aminoacylation ribozyme variant] | 9.56 | 3.53 | 8.52 | 3.91 | 45.3 | 8.78
18 | AUUAUCCUGGACAUCGAGUGA [Fam2.1 aminoacylation ribozyme variant] | 6.24 | 3.06 | 8.19 | 2.88 | 34.7 | 6.78
19 | AUUCAACUAGGUCAUCGAGUG [Fam2.2 aminoacylation ribozyme variant] | 3.13 | 1.45 | 1.84 | 1.55 | 2.85 | 2.2
20 | AUUCAACUAGGUUAUCGGGUG [Fam2.2 aminoacylation ribozyme variant] | 3.61 | 2.45 | 3.46 | 2.21 | 22.1 | 3.29
21 | AUUCACAUAUGUCAUCGGGUG [Fam2.2 aminoacylation ribozyme variant] | 9.08 | 4.21 | 7.3 | 4.44 | 52.5 | 7.09
22 | AUUCACCAAAGUCAUCGGGUG [Fam2.2 aminoacylation ribozyme variant] | 19.5 | 8.23 | 13.6 | 9.57 | 110 | 15.3
23 | AUUCACCAAGGUCAUCGGGUU [Fam2.2 aminoacylation ribozyme variant] | 2.21 | 2.59 | 4.16 | 2.42 | 17.2 | 2.43
24 | AUUCACCAAGGUCAUGGGGUG [Fam2.2 aminoacylation ribozyme variant] | 12.7 | 5.88 | 8.64 | 6.16 | 77.3 | 9.1
25 | AUUCACCGAGGUAAUCGGGUG [Fam2.2 aminoacylation ribozyme variant] | 11.5 | 5.13 | 8.26 | 4.23 | 60.4 | 8.27
26 | AUUCACCGAGGUCAUCGGGAG [Fam2.2 aminoacylation ribozyme variant] | 1.66 | 1.61 | 1.74 | 1.44 | 4.74 | 2.23

Row | Sequence | self-aminoacylation [1] | self-aminoacylation [2] | self-aminoacylation [3] | self-aminoacylation [4] | self-aminoacylation [5] | self-aminoacylation [6]
27 | AUUCACCGGGGUCAUCGGGUG [Fam2.2 aminoacylation ribozyme variant] | 10.7 | 7.4 | 9.14 | 6.47 | 80.5 | 8.15
28 | AUUCACCUAGCUCAUCGGGUU [Fam2.2 aminoacylation ribozyme variant] | 1.59 | 1.74 | 0.984 | 1.46 | 0.848 | 1.29
29 | AUUCACCUAGGCCAGCGGGUG [Fam2.2 aminoacylation ribozyme variant] | 4.78 | 4.07 | 3.78 | 3.59 | 24.8 | 4.21
30 | AUUCACCUAGGUCAACGUGUG [Fam2.2 aminoacylation ribozyme variant] | 0.771 | 0.919 | 0.292 | 0.731 | 0.389 | 0.796
31 | AUUCACCUAGGUCAGCGGGUC [Fam2.2 aminoacylation ribozyme variant] | 1.33 | 1.1 | 0.583 | 1.17 | 0.768 | 0.931
32 | AUUCACCUAGGUCAUAGGGUC [Fam2.2 aminoacylation ribozyme variant] | 0.449 | 0.693 | 0.615 | 0.642 | 0.533 | 0.446
33 | AUUCACCUAGGUCAUAGGUUG [Fam2.2 aminoacylation ribozyme variant] | 0.9 | 0.77 | 0.441 | 0.63 | 0.595 | 0.846
34 | AUUCACCUAGGUCAUCAGGUA [Fam2.2 aminoacylation ribozyme variant] | 0.818 | 1.05 | 0.938 | 1.08 | 0.962 | 0.849
35 | AUUCACCUAGGUCAUCCGGUA [Fam2.2 aminoacylation ribozyme variant] | 2.3 | 2.3 | 1.87 | 2.36 | 6.52 | 2.17
36 | AUUCACCUAGGUCAUCGAAUG [Fam2.2 aminoacylation ribozyme variant] | 0.631 | 0.71 | 0.335 | 0.631 | 0.693 | 0.639
37 | AUUCACCUAGGUCAUCGCCUG [Fam2.2 aminoacylation ribozyme variant] | 3.01 | 2.44 | 2.11 | 2.01 | 8.71 | 1.87
38 | AUUCACCUAGGUCAUCGGAUC [Fam2.2 aminoacylation ribozyme variant] | 0.638 | 0.85 | 0.463 | 0.649 | 0.396 | 0.841
39 | AUUCACCUAGGUCAUCGGUGG [Fam2.2 aminoacylation ribozyme variant] | 1.85 | 1.52 | 1.81 | 1.5 | 4.26 | 1.97
40 | AUUCACCUAGGUCAUCUGGAG [Fam2.2 aminoacylation ribozyme variant] | 0.783 | 0.84 | 0.417 | 0.873 | 0.678 | 0.695
41 | AUUCACCUAGGUCAUCUGGUU [Fam2.2 aminoacylation ribozyme variant] | 1.15 | 1.03 | 0.629 | 1.13 | 0.914 | 1.04
42 | AUUCACCUAGGUCAUGGGUUG [Fam2.2 aminoacylation ribozyme variant] | 0.639 | 0.871 | 0.665 | 0.74 | 1.84 | 0.842
43 | AUUCACCUAGGUCGUCGGUUG [Fam2.2 aminoacylation ribozyme variant] | 1.33 | 1.24 | 0.63 | 1.13 | 4.19 | 1.2
44 | AUUCACCUAGGUGAUAGGGUG [Fam2.2 aminoacylation ribozyme variant] | 1.58 | 1.26 | 1.64 | 1.29 | 1.4 | 1.32
45 | AUUCACCUAGGUUAUCGUGUG [Fam2.2 aminoacylation ribozyme variant] | 1 | 0.981 | 0.804 | 0.775 | 2.6 | 1.07
46 | AUUCACCUAUGUCAUCGGGAG [Fam2.2 aminoacylation ribozyme variant] | 0.996 | 0.981 | 0.79 | 0.962 | 1.06 | 1.06
47 | AUUCACCUCGGUCAUCGGCUG [Fam2.2 aminoacylation ribozyme variant] | 1.96 | 2.65 | 2.02 | 1.87 | 8.33 | 1.75
48 | AUUCACCUCGUUCAUCGGGUG [Fam2.2 aminoacylation ribozyme variant] | 5.48 | 3.3 | 5 | 2.93 | 26.3 | 4.1
49 | AUUCACCUGGGUCGUCGGGUG [Fam2.2 aminoacylation ribozyme variant] | 2.3 | 2.48 | 2.11 | 1.93 | 6.66 | 2.46
50 | AUUCACGUAGGUCAUCGGAUG [Fam2.2 aminoacylation ribozyme variant] | 1.02 | 1.1 | 0.8 | 1.02 | 0.395 | 1.05
51 | AUUCACGUAGGUUAUCGGGUG [Fam2.2 aminoacylation ribozyme variant] | 4.91 | 5.09 | 4.68 | 3.34 | 38.9 | 5.38
